Data as given in PubChem BioAssay AID743454 (Peter MacCallum Cancer Centre, 2014).
Here is a random part of about 18,000 reagents tested. 450 of all reagents (2.5%) were called active. 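Single biological run; no consistent viability z cut-off exists, so the class columns, not z-scores, define the calls.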 A number with no mark means an inactive call.

Assay: 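Knock-downs lowering viability or raising caspase 3/7 activity in vorinostat-treated resistant cells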 (primary screen)
Cells: human HCT116-VR colon cancer cells, selected for vorinostat resistance
Reagents: siRNA pool against human genes, 40 nM siRNA pool
Time to read-out: vorinostat for 24 h, read-out about 72 h after transfection
Treatment: vorinostat at 2.5 µM final
Read-out: 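Two measures, CellTiter-Fluor viability and luminescent caspase 3/7 activity, each as fold change against same-plate mock wells, mean of duplicates, then screen-wide robust z-score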
Direction: viability robust z-score: higher = more viable cells than screen typical; caspase robust z-score: higher = more caspase 3/7 activity than screen typical
Call rule: 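a knock-down is a hit when classed RV1 or RV2 for lowered viability, or CA1 or CA2 for caspase activation; those lethal without drug were dropped; hits were retested singly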

| target gene | viability hit class | caspase hit class | viability robust z-score | caspase robust z-score |
| --- | --- | --- | --- | --- |
| IL11 | no change | no change | -0.66 | 2.46 |
| MIGA1 | no change | no change | 0.08 | -0.22 |
| POLR1A | no change | no change | -1.21 | 0.72 |
| MRAS | no change | no change | 0.22 | 2.66 |
| DKK3 | no change | no change | -1 | 2.31 |
| LSM3 | no change | no change | 0.54 | -0.78 |
| NID2 | no change | no change | 0.12 | -1.12 |
| PARP16 | no change | no change | 0.08 | -0.29 |
| EXOSC5 | RV2 (reduced viability) (active) | no change | -3.17 | 1.37 |
| ARAP2 | no change | no change | 1.18 | -0.18 |
| HDAC4 | no change | no change | 0.36 | 1.04 |
| GRIN1 | no change | no change | -0.84 | -0.36 |
| DNAJC10 | no change | no change | -0.06 | -0.92 |
| ANKRD23 | no change | no change | -2.25 | 0.3 |
| CPXM1 | no change | no change | -0.2 | 0.36 |
| HLA-DPB1 | no change | no change | -0.32 | -0.32 |
| OSBPL3 | no change | no change | 0.57 | -0.5 |
| GK2 | no change | no change | 0.98 | 0.23 |
| IFT43 | no change | no change | -0.17 | 0.04 |
| DYNLRB2 | no change | no change | -0.02 | -0.06 |
| NRBP1 | no change | no change | -0.15 | -0.64 |
| PAM16 | no change | no change | -0.24 | -0.71 |
| TPRG1L | no change | no change | -0.63 | 0.34 |

A portion taken from the entries so far, as a working copy:
| target gene | viability hit class | caspase hit class | viability robust z-score | caspase robust z-score |
| --- | --- | --- | --- | --- |
| NID2 | no change | no change | 0.12 | -1.12 |
| PARP16 | no change | no change | 0.08 | -0.29 |
